Measured values as given in the supplement of paper PMC5949888.
Most values lie at the floor of the assay. Slopes are relative: functional sequences can read slightly below zero.

Each substance was assayed on Saccharomyces cerevisiae PS128 hsf1 delta, HSF1(1-493) fusion (assay: growth estimate (transactivation domain function in HSF1 fusion, heat-shock survival) (a.u. (slope of normalised read count over time)); higher = stronger growth at 37°C, i.e. more transactivation activity). Settings: library: random library.
Protocol: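 Random 60-nt DNA library encoding peptides of up to 20 aa, fused to the C-terminus of yeast HSF1 residues 1-493 (C-terminal TAD deleted) and expressed from the native HSF1 promoter on a CEN plasmid in hsf1-deleted S. cerevisiae PS128. Cells were selected at 37°C on -trp 5-FOA plates for 0, 2, 4, 6 and 8 days and amplicons were sequenced. Growth estimate is the slope of a robust linear fit of total-sum-normalised read counts (normalised to the first time point) over time, using at least 2 replicates. Sequences are classed functional (TAD activity) above a threshold of -0.13, set from stop-codon control sequences.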
For GRECRITSGRRGVTLVGVGH, the growth estimate was < -0.25. With GREGV the growth estimate was < -0.25. In the case of GREILSQVRRYPITWPWGRR, the growth estimate is reported as < -0.25. In the case of GRELPAIGIQLLVRAASETV, the growth estimate is reported as < -0.25. With GRERYWRSYKNVTDVGRFIV the growth estimate was < -0.25. GRETRSPVGARKETMTGSAI was tested, and the growth estimate was < -0.25. In the case of GREVLKSIVRFDTSILHSPE, the growth estimate is reported as < -0.25. For GRF, the growth estimate was < -0.25. GRFTVACIRPIVPARSL was tested, and the growth estimate was < -0.25. GRGA was tested, and the growth estimate was < -0.25. With GRGGCECQILERRINCSR the growth estimate was < -0.25. For GRGGRAG, the growth estimate was < -0.25. With GRGPGAGNCYARMRESRVPD the growth estimate was < -0.25. GRGPMRLEPTPCTQFICVAQ was tested, and the growth estimate was < -0.25. For GRGRKRHSFTSTLDRCSLVL, the growth estimate was < -0.25. For GRGSRHRVKLLASCHTFYAH, the growth estimate was < -0.25. In the case of GRHDLVSCEV, the growth estimate is reported as < -0.25. In the case of GRHRIRRQR, the growth estimate is reported as < -0.25. With GRHVGVPLFYHVYWALHQ the growth estimate was < -0.25. With GRICRVGKAHAQSNFGMIGR the growth estimate was < -0.25. GRIDVTRKRICRETKAPAHA was tested, and the growth estimate was < -0.25. GRIIPISDAERWL was tested, and the growth estimate was < -0.25. For GRILRYAIMVSRGNLSSKRP, the growth estimate was < -0.25. For GRIRKTTRCTPTRL, the growth estimate was < -0.25. With GRKGPVTAAGSRRLG the growth estimate was < -0.25. For GRLALLLLVDMTGPDCTVPP, the growth estimate was < -0.25. In the case of GRLGT, the growth estimate is reported as < -0.25. With GRLLTNCPTPTKSSCSKRRA the growth estimate was < -0.25. For GRLRADGVWITRFVLGTKEV, the growth estimate was < -0.25. For GRLV, the growth estimate was -0.198. GRM was tested, and the growth estimate was < -0.25. For GRMHGCFPIRKLCSLLGQSS, the growth estimate was < -0.25. For GRP, the growth estimate was < -0.25. In the case of GRPAT, the growth estimate is reported as < -0.25. With GRPCIRLLKTAGLL the growth estimate was < -0.25. GRPKQSSGF showed a growth estimate of -0.231. In the case of GRPLTCRYWSCGSRFASKTR, the growth estimate is reported as < -0.25. GRPRKVVPR was tested, and the growth estimate was < -0.25. In the case of GRPTGLGLRTPHHAGILEGV, the growth estimate is reported as < -0.25. For GRPVNRLIK, the growth estimate was < -0.25. With GRQLLIKVGREGAKWRCNIV the growth estimate was < -0.25. GRRHEPFMVRTLWASVLA was tested, and the growth estimate was < -0.25. For GRRHVVGRRSLLKAKLTAPY, the growth estimate was < -0.25. GRRIK was tested, and the growth estimate was < -0.25. With GRRLGFEAGPSPRSEIIV the growth estimate was < -0.25. With GRRLNRRSSVELYKRAVK the growth estimate was < -0.25. With GRRRDRAARSIGWWWGEPLN the growth estimate was < -0.25. GRRREQSYRRQEWYT was tested, and the growth estimate was < -0.25. In the case of GRRSYRRCEHSPAIRWAHAI, the growth estimate is reported as < -0.25. For GRSAVRWSAQSVRQPGVLGS, the growth estimate was < -0.25. GRSDTR was tested, and the growth estimate was < -0.25. For GRSESCTTVAMFMSRP, the growth estimate was -0.009. With GRSFCTLDASLGWVQSGRAR the growth estimate was < -0.25. In the case of GRSGQVHCCPGVYWQRICTA, the growth estimate is reported as < -0.25. GRSIWVT was tested, and the growth estimate was < -0.25. With GRSPVLRTLYA the growth estimate was < -0.25. With GRSRGSNKTVSAGQGKGMAQ the growth estimate was < -0.25. With GRSRRVRNKFE the growth estimate was < -0.25. GRSVRAWVLGVTCNGAEAAA was tested, and the growth estimate was < -0.25. GRTQRDC was tested, and the growth estimate was < -0.25. With GRTWAQ the growth estimate was < -0.25. In the case of GRTYLAAQAFRSPPQGLRV, the growth estimate is reported as < -0.25. With GRTYTKQTGWPRLSLVINHR the growth estimate was < -0.25. With GRVEG the growth estimate was < -0.25. For GRVERAVNCLVCTATNARYR, the growth estimate was < -0.25. For GRVGSCVMALRPATTPDKSQ, the growth estimate was < -0.25. In the case of GRVI, the growth estimate is reported as < -0.25. GRVINLVSTGRTVSSVGTIV was tested, and the growth estimate was < -0.25. In the case of GRVLLLRTRSLHWVRFGSGD, the growth estimate is reported as < -0.25. With GRVNVSTCIAPYLNRPG the growth estimate was -0.246. For GRVPKG, the growth estimate was < -0.25. With GRVQRCTQYLLSAVAGDRIG the growth estimate was < -0.25. GRVRRSWCSCVRRRVEPSRV was tested, and the growth estimate was < -0.25. GRVSAHRGRSGYVGPSEIID was tested, and the growth estimate was < -0.25. With GRVVEEKILRAAEPSRNDGK the growth estimate was < -0.25. With GRVVRGRF the growth estimate was < -0.25. GRVVVRGKIRFTR showed a growth estimate of 0.181. For GRVVYKEGGPGSEDSSEGSL, the growth estimate was < -0.25. GRVYAVIREYAQCVAGGVRA was tested, and the growth estimate was < -0.25. For GRWAPTL, the growth estimate was < -0.25. For GRWKIGHK, the growth estimate was < -0.25. In the case of GRWNCQEERVLDSKPVVKWF, the growth estimate is reported as < -0.25. For GRYRVNTSCGG, the growth estimate was < -0.25. With GSAESSLHAMRAHAARGFGA the growth estimate was < -0.25. GSAIATSDRN gave a growth estimate of -0.245. GSAKDR was tested, and the growth estimate was < -0.25. With GSAPHDLMFRSQRVKRFQTN the growth estimate was < -0.25. In the case of GSARFTRPSCPE, the growth estimate is reported as < -0.25. Substance GSATSIVM has a growth estimate of -0.199. With GSCLCEGGGQSAKKSLHPHS the growth estimate was < -0.25. In the case of GSCPIRGLCHAYVSLMY, the growth estimate is reported as < -0.25. With GSDLRISRELFVAVTDLTNP the growth estimate was < -0.25. For GSDSADFETAQKGRMQTSGY, the growth estimate was < -0.25. For GSEGDCSLATREVGVLEQIR, the growth estimate was -0.219. In the case of GSEICHQ, the growth estimate is reported as < -0.25. With GSETNLTWPGLSSLLGGCGQ the growth estimate was < -0.25. For GSFGTFDLRLQRGRQVNLLI, the growth estimate was < -0.25. GSFSRTDDRRRGSEEPILCC was tested, and the growth estimate was < -0.25. GSGC was tested, and the growth estimate was < -0.25. GSGF gave a growth estimate of -0.243. For GSGG, the growth estimate was < -0.25. With GSGGP the growth estimate was < -0.25. GSGGVQGVMVVL was tested, and the growth estimate was < -0.25. For GSGHKALQGVFQRRGGNGSR, the growth estimate was < -0.25. GSGKVLWPSLVSPMV was tested, and the growth estimate was < -0.25. GSGLSLGTAGKLANVALSSP was tested, and the growth estimate was < -0.25. For GSGTFR, the growth estimate was < -0.25. For GSGVKTDKRPNGRNCNFVLP, the growth estimate was < -0.25. For GSH, the growth estimate was < -0.25. GSHFPPFRLRVRIIWSHNPP was tested, and the growth estimate was < -0.25. GSHWTTGD was tested, and the growth estimate was < -0.25. GSHYFGYRWSLVHLSVTGLD was tested, and the growth estimate was < -0.25. For GSIKTGKIGPRRAPWFTCHH, the growth estimate was < -0.25. With GSILVAMANASVYFFAVKRW the growth estimate was < -0.25. For GSINFLITVLDRSPTVLEAP, the growth estimate was < -0.25. GSIPFAAGIRHHPFRNEGMV was tested, and the growth estimate was < -0.25. For GSIPPIRCGYRGLGDHTRAS, the growth estimate was < -0.25. For GSIRDSGIALSPSGWQSGK, the growth estimate was < -0.25. GSIVYLHQVRTPGPSVRSDS was tested, and the growth estimate was < -0.25. In the case of GSKAILAPVAKIKQIVRKHA, the growth estimate is reported as < -0.25. For GSKRYVLPAGFEGYEGQVVH, the growth estimate was < -0.25. GSLAIAIRTTSQ showed a growth estimate of -0.25. For GSLCLTARTGPTPDPTPSGD, the growth estimate was < -0.25. With GSLFARIVRASKWA the growth estimate was < -0.25. GSLFPRRRANLGFSDRSAWA was tested, and the growth estimate was < -0.25. GSLLLVISVLGIKNGAHSH was tested, and the growth estimate was < -0.25. For GSLRMLDQPILQLADLSTGP, the growth estimate was < -0.25. With GSLTFEGLGYIRIGFILEHN the growth estimate was < -0.25. With GSLWVDLVYSAWKS the growth estimate was < -0.25. GSMELE was tested, and the growth estimate was < -0.25. GSMF was tested, and the growth estimate was < -0.25. GSMPHVLRPHCGPVFIAPNS was tested, and the growth estimate was < -0.25. For GSMQERVVARLDTLWLDW, the growth estimate was < -0.25. With GSNNSGATARVDKG the growth estimate was < -0.25. For GSNWR, the growth estimate was < -0.25. With GSPEDENGYG the growth estimate was < -0.25. GSPEMREAELVSDSAT was tested, and the growth estimate was < -0.25. In the case of GSPMLSQLTSVANR, the growth estimate is reported as < -0.25. In the case of GSPNGSIDDLADGVYPT, the growth estimate is reported as < -0.25. With GSPVLGKPGRQGGQIDNSLN the growth estimate was < -0.25. With GSQGGDAYH the growth estimate was < -0.25. For GSQNSTPSW, the growth estimate was < -0.25. GSRARSPAPSGYLAIRARTL was tested, and the growth estimate was < -0.25.
